# Laboratory results reported in PubChem BioAssay AID2685 (National Center for Advancing Translational Sciences (NCATS), 2010).
# This is one part of the list. These are further read-outs of the screen, such as a control signal, another cell line or another target. No call is given for them. Most of these compounds were active or inconclusive in the main read-out, so they are no random draw. Words in brackets tell the shape of the fitted curve; partial curves, single points and poor fits give uncertain potencies.
# Assay: qHTS Assay for Lipid Storage Modulators in Drosophila S3 Cells;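 for cell number change: cells counted by Cell Tracker Red CMTPX staining in the red channel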
# Conditions: BODIPY lipid droplet fluorescence, 18-24 h; for cell number change: measured here: cell count max response, cells fed with added oleic acid
# Procedure, shortened: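 Laser-scanning cytometry quantifies lipid droplet accumulation (500–530 nm total intensity; droplet/cell object ratio) in oleic acid-fed (400 uM added) Drosophila S3 cells treated with a concentration series. 20 uM Triacsin C defined 100% inhibition.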
# [1] = measured here: lipid fluorescence (Fed channel) AC50, cells fed with added oleic acid
# [2] = measured here: cell number channel AC50, cells fed with added oleic acid
compound,measurement,setting,value
CC(Oc1ccc2ccc(=O)oc2c1)C(=O)NCC1CCC(C(=O)O)CC1 (centres undefined),cell number change,,20.4%
same,AC50,[1],"8.2 µM [falling, partial curve]"
O=C(COC(=O)c1ccc([N+](=O)[O-])s1)Nc1cccc(S(=O)(=O)NC2=NCCCCC2)c1,cell number change,,-7.26%
same,AC50,[1],"0.461 µM [falling, single point]"
COc1ccc(C(=O)COC(=O)c2cc(S(=O)(=O)N3CCCCC3)ccc2N2CCOCC2)c(OC)c1,cell number change,,41.1%
same,AC50,[2],"18.4 µM [rising, single point]"
same,AC50,[1],"18.4 µM [rising, partial curve]"
CCOC(=O)c1ccc(S(=O)(=O)NC2CCC(C)CC2)cc1 (centres undefined),cell number change,,-10.4%
same,AC50,[2],"6.51 µM [falling, single point]"
same,AC50,[1],"6.51 µM [falling, single point]"
CCOC(=O)CNC(=O)Nc1ccccc1C(=O)OC,cell number change,,-6.53%
same,AC50,[1],"1.16 µM [falling, full curve]"
O=C1NC(Cc2ccccc2)c2nc3cc(F)ccc3c(=O)n2-c2cc(Cl)ccc21 (centres undefined),cell number change,,11.8%
same,AC50,[1],"20.6 µM [rising, single point]"
COc1ccc(NC(=O)NCc2ccc3c(c2)OCO3)c(OC)c1,cell number change,,3.24%
CCOC1CC(C)(C)NC(=S)N1 (centres undefined),cell number change,,32.1%
same,AC50,[2],"0.291 µM [rising, partial curve, poor fit]"
CCc1ccc(NC(=O)CSc2nnc(C3CC3)n2CC2CCCO2)cc1 (centres undefined),cell number change,,14.2%
same,AC50,[1],"1.84 µM [rising, partial curve]"
CCC(C)NC(=O)C1CCN(S(=O)(=O)c2cccs2)CC1 (centres undefined),cell number change,,6.96%
same,AC50,[2],"0.082 µM [falling, partial curve, poor fit]"
CCc1nn(CC(=O)N2CCN(CC)CC2)c(=O)c2cccn12,cell number change,,9.22%
CC1CCCCC1NC(=O)COC(=O)c1ccc(S(=O)(=O)NCc2ccco2)cc1 (centres undefined),cell number change,,-171%
same,AC50,[2],"29.1 µM [falling, partial curve, poor fit]"
same,AC50,[1],"29.1 µM [falling, single point]"
Cc1cccc(COC(=O)CCCNC(=O)c2ccc(Cl)cc2)c1,cell number change,,-4.55%
COc1ccc(Cl)cc1-c1nc(SCC(=O)NC(C)C)n[nH]1,cell number change,,4.03%
same,AC50,[2],"0.731 µM [falling, single point]"
Cc1ccc2sc(N(CCCN(C)C)C(=O)c3ccc(S(=O)(=O)N4CCCCCC4)cc3)nc2c1C,AC50,[2],"0.731 µM [falling, full curve]"
same,AC50,[1],"0.651 µM [falling, full curve]"
COCC1CCCCN1C(=O)c1ccc(OC)c(OC2CCN(C(C)C)CC2)c1 (centres undefined),cell number change,,97.4%
same,AC50,[2],"20.6 µM [rising, partial curve]"
CCn1c(SCC(N)=O)nnc1-c1ccc2[nH]c(C)c(C)c2c1,cell number change,,12%
same,AC50,[1],"5.17 µM [rising, partial curve]"
COC(=O)c1nnn(-c2nonc2N)c1CN1CCc2ccccc21,cell number change,,-11.3%
CCc1cccc(NS(=O)(=O)c2csc(C(N)=O)c2)c1,cell number change,,-17.2%
CCOC(=O)N1CCN(CC(O)COCCC23CC4CC(CC(C4)C2)C3)CC1 (centres undefined),cell number change,,-0.817%
same,AC50,[1],"0.82 µM [falling, single point]"
COc1ccc(Cl)cc1NC(=O)CN1CCN(S(=O)(=O)c2ccc(F)cc2)CC1,cell number change,,64.5%
same,AC50,[2],"18.4 µM [rising, single point]"
COc1ccc(/C=C/C(=O)NC(=S)NNC(=O)Cc2cccs2)cc1OC,AC50,[2],"0.517 µM [rising, full curve, poor fit]"
same,AC50,[1],"7.31 µM [rising, partial curve, poor fit]"
CCC(C)Sc1ccc(-c2nc3cnccn3c2NC2CCCCC2)cc1 (centres undefined),cell number change,,-13.9%
same,AC50,[2],"3.26 µM [falling, single point]"
Cc1nnc(SCC(=O)Nc2ccc(-c3nc4ccccc4s3)cc2)s1,cell number change,,-4.03%
Cc1ccc(S(=O)(=O)N2CCN(C(=O)CN3CCOCC3)C2C(C)C)cc1 (centres undefined),cell number change,,10.2%
same,AC50,[1],"2.31 µM [rising, full curve, poor fit]"
Cc1cccc(N=c2c([N+](=O)[O-])nn(-c3ccc(Cl)cc3)n2O)c1,cell number change,,-45.6%
same,AC50,[2],"16.4 µM [falling, partial curve, poor fit]"
same,AC50,[1],"32.6 µM [falling, partial curve, poor fit]"
Cc1ccc(S(=O)(=O)c2c(N)n(Cc3ccco3)c3nc4ccccc4nc23)cc1,cell number change,,3.75%
CC(Sc1nnc2ccccn12)C(=O)Nc1ccc2c(c1)OCCO2 (centres undefined),cell number change,,-14.2%
same,AC50,[2],"0.0058 µM [falling, full curve, poor fit]"
COC(=O)C1=C(O)CSC1=Nc1cccc(C(F)(F)F)c1,cell number change,,2.5%
same,AC50,[1],"6.51 µM [falling, single point]"
COc1cc(C)nc(N2CCC(C(=O)NC3CCCCC3)CC2)n1,AC50,[2],"6.51 µM [rising, single point]"
same,AC50,[1],"3.66 µM [rising, single point]"
CCOc1cc(NC(=S)NCCCN2CCOCC2)c(OCC)cc1NC(=O)c1ccccc1C,cell number change,,-22.4%
same,AC50,[1],"11.6 µM [falling, partial curve, poor fit]"
Cc1ccc(NC(=O)CN(C)C(=O)c2ccc(NS(=O)(=O)c3ccc4[nH]c(=O)[nH]c4c3)cc2)cc1,cell number change,,8.13%
same,AC50,[1],"7.31 µM [rising, partial curve, poor fit]"
Cc1ccc(C)c(S(=O)(=O)N2CCC(c3nc4c(nnn4Cc4ccc5c(c4)OCCO5)c(=O)[nH]3)CC2)c1,cell number change,,-19%
same,AC50,[1],"16.4 µM [falling, partial curve]"
CCCCN(C(=O)NC(=O)Nc1ccccc1OC)S(C)(=O)=O,cell number change,,-4.67%
same,AC50,[1],"0.00461 µM [falling, full curve, poor fit]"
O=C1CCN(S(=O)(=O)c2cccs2)c2ccc(C(F)(F)F)cc2N1,cell number change,,-5.1%
same,AC50,[1],"1.84 µM [falling, partial curve]"
CCC(=O)Nc1ccc(S(=O)(=O)NCc2ccco2)cc1,cell number change,,-0.666%
O=C(Nc1ccccc1)Nc1nnc(Cc2ccc([N+](=O)[O-])cc2)s1,cell number change,,-7.28%
same,AC50,[2],"0.00411 µM [rising, full curve, poor fit]"
same,AC50,[1],"11.6 µM [rising, partial curve, poor fit]"
COCCN1C(=O)CC(NNC(=O)c2ccc(S(=O)(=O)N3CCCC3)cc2)C1=O (centres undefined),cell number change,,-34.5%
same,AC50,[2],"20.6 µM [falling, single point]"
O=C(CC1(CC(=O)N2CCOCC2)CCCC1)Nc1ccccc1,cell number change,,-17.5%
same,AC50,[1],"29.1 µM [falling, single point]"
Cc1cc(-n2c(C)cc(C(=O)COc3cc(F)ccc3[N+](=O)[O-])c2C)no1,AC50,[1],"5.17 µM [falling, partial curve]"
O=C(NC1CCCCCC1)c1ccc([N+](=O)[O-])s1,cell number change,,1.28%
same,AC50,[1],"29.1 µM [rising, single point]"
CC1CCN(C(=O)COC(=O)c2cc3ccccc3cc2O)CC1,cell number change,,-0.253%
same,AC50,[1],"16.4 µM [falling, single point]"
COCC(C)N=C1NN=C(c2ccc(NC(C)=O)cc2)CS1 (centres undefined),cell number change,,47.4%
same,AC50,[2],"11.6 µM [rising, partial curve]"
same,AC50,[1],"3.66 µM [rising, single point]"
COC(=O)c1ccccc1NC(=O)Nc1ccc(Br)cn1,cell number change,,-5.1%
same,AC50,[2],"0.0731 µM [rising, full curve, poor fit]"
COc1ccccc1C1C(C(N)=O)=C(C)Nc2nc(CCCO)nn21 (centres undefined),cell number change,,23.3%
same,AC50,[1],"1.64 µM [rising, full curve, poor fit]"
Cc1cc(C)c2nc(-c3ccccn3)cc(C(=O)Nc3cc(C)on3)c2c1,cell number change,,-54.8%
same,AC50,[2],"16.4 µM [falling, partial curve, poor fit]"
COc1ccc(S(=O)(=O)N(CC(=O)NCc2ccco2)c2ccccc2)cc1OC,cell number change,,53.6%
same,AC50,[2],"16.4 µM [rising, partial curve]"
CCOC(=O)C(Cc1ccc(NC(=O)/C(=C\c2ccccc2)NC(=O)c2ccccc2)cc1)N1C(=O)c2ccccc2C1=O (centres undefined),cell number change,,13.6%
Cc1ccc2nc(C(=O)O)c(C(=O)O)nc2c1,cell number change,,-30.6%
same,AC50,[1],"18.4 µM [falling, single point]"
CCOc1ccc2c(c1)C(C)=CC(C)(C)N2C(=O)Nc1ccccc1,cell number change,,83.9%
same,AC50,[2],"18.4 µM [rising, partial curve]"
same,AC50,[1],"6.51 µM [falling, single point]"
COc1ccc2oc(C(=O)Nc3ccc(S(=O)(=O)N(C)C4CCN(C)CC4)cc3)c(C)c2c1,cell number change,,16.4%
same,AC50,[1],"5.8 µM [rising, partial curve]"
CCOc1cc(/C=N/NC(=O)CNc2cccc(C)c2)ccc1OC(=O)c1ccccc1,cell number change,,-4.75%
same,AC50,[1],"1.84 µM [rising, partial curve, poor fit]"
COc1ccccc1CNC(=O)/C=C/c1ccc(S(=O)(=O)N2CCOCC2)cc1,cell number change,,-1.59%
same,AC50,[1],"29.1 µM [rising, single point]"
Cn1ncc2c(=O)n(/N=C/c3ccccc3)cnc21,AC50,[1],"9.2 µM [falling, partial curve]"
CC(=O)Nc1cccc(NC(=O)c2csc(C)c2)c1,cell number change,,4.86%
same,AC50,[1],"3.66 µM [falling, partial curve]"
O=C(O)CCN1C(=O)CC2(CCCCC2)C1=O,cell number change,,-12.8%
same,AC50,[1],"0.82 µM [falling, full curve, poor fit]"
CNc1c(NS(=O)(=O)c2ccc(CC(C)C)cc2)c(=O)oc2ccccc12,cell number change,,-6.31%
same,AC50,[1],"29.1 µM [rising, single point]"
COc1ccc(C(=O)CSc2nnc(-c3ccco3)n2CC2CCCO2)cc1 (centres undefined),cell number change,,-35.6%
same,AC50,[2],"1.84 µM [falling, partial curve, poor fit]"
COCC(C)OC(=O)C(C#N)c1nc2ccccc2nc1N1CCN(Cc2ccccc2)CC1 (centres undefined),cell number change,,-36.6%
same,AC50,[2],"10.3 µM [falling, partial curve, poor fit]"

# 2 entries drawn at random from the list so far, as already listed:
compound,measurement,setting,value
CCOC(=O)N1CCN(CC(O)COCCC23CC4CC(CC(C4)C2)C3)CC1 (centres undefined),AC50,[1],"0.82 µM [falling, single point]"
CCC(C)Sc1ccc(-c2nc3cnccn3c2NC2CCCCC2)cc1 (centres undefined),AC50,[2],"3.26 µM [falling, single point]"

# Given with bars between the fields: part of the list above.
compound | measurement | setting | value
CCOC1CC(C)(C)NC(=S)N1 (centres undefined) | AC50 | [2] | 0.291 µM [rising, partial curve, poor fit]
CCc1ccc(NC(=O)CSc2nnc(C3CC3)n2CC2CCCO2)cc1 (centres undefined) | cell number change |  | 14.2%
same | AC50 | [1] | 1.84 µM [rising, partial curve]
CCC(C)NC(=O)C1CCN(S(=O)(=O)c2cccs2)CC1 (centres undefined) | cell number change |  | 6.96%
